No constants are given. Whether binding was seen depends on the method and setting. In cells and extracts the contact can be indirect. Some results given as binding are weak or reduced against the parent protein; the word gives no strength.

The chains behind the UniProt entries cited, without tags or fusion partners.
UniProt O75362: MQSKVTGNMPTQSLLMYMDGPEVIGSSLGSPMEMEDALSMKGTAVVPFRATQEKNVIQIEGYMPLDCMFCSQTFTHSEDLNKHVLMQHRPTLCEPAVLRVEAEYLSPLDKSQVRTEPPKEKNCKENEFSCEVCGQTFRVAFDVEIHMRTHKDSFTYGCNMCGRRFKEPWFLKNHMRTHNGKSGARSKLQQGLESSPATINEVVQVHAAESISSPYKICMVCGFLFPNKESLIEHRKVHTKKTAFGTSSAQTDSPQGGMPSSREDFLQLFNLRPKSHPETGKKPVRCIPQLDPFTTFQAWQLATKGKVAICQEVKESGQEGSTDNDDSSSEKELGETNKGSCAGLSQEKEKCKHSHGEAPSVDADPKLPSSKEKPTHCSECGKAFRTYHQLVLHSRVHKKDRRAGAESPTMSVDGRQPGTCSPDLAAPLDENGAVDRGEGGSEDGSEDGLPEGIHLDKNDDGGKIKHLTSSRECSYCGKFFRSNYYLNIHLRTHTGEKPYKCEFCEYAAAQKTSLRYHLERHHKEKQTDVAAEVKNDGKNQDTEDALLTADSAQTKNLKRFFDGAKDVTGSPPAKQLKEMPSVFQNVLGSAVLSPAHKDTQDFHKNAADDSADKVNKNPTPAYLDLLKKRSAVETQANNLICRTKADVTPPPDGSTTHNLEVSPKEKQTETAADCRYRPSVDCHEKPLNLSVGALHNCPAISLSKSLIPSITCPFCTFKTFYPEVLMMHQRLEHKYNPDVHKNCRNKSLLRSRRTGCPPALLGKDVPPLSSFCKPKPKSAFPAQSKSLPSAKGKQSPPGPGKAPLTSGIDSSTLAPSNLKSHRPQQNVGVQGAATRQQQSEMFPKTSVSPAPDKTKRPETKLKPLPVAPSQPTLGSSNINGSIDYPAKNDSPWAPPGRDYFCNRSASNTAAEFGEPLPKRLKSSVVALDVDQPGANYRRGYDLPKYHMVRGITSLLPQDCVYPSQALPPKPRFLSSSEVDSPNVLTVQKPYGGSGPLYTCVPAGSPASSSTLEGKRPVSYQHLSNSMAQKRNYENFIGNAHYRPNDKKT
UniProt Q13547: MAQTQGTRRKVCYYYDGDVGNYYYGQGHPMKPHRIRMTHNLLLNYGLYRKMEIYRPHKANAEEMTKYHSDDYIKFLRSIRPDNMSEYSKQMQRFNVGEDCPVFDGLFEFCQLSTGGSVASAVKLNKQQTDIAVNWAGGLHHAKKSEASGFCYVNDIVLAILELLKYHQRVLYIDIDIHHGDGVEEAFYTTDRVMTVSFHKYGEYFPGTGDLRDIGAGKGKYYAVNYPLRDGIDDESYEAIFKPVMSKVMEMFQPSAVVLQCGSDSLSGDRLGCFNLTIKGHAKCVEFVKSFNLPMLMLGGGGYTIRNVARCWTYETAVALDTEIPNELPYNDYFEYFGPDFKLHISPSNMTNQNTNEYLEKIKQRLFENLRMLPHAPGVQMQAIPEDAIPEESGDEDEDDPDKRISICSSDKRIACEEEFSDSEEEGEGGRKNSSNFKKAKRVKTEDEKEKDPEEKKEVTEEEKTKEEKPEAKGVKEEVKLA
UniProt P08047: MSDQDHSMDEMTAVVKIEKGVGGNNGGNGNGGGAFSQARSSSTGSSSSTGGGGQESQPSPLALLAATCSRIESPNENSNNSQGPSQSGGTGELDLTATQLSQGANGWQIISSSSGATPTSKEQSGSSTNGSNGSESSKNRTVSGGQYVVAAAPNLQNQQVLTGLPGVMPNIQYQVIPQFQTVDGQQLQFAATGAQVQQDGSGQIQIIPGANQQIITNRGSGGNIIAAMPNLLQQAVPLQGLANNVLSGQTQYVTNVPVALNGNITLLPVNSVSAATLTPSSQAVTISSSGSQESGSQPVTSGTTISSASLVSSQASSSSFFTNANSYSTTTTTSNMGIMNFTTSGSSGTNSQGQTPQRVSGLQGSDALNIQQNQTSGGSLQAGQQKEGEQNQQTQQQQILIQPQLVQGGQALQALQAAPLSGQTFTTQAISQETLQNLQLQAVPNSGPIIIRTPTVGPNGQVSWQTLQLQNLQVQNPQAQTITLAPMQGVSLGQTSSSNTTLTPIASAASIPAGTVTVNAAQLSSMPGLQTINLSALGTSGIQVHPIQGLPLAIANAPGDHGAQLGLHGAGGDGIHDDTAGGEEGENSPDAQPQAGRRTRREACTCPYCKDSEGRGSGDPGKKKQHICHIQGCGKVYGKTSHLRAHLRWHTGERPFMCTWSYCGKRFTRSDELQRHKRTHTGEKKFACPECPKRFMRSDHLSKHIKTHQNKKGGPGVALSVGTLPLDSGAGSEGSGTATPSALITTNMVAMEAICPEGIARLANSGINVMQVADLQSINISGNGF

In assay [1] the target is T1, T-Box 2 (TBX2) (human (endogenous in MCF7, T47D, BT474)) (UniProt Q13207).
T1 sequence: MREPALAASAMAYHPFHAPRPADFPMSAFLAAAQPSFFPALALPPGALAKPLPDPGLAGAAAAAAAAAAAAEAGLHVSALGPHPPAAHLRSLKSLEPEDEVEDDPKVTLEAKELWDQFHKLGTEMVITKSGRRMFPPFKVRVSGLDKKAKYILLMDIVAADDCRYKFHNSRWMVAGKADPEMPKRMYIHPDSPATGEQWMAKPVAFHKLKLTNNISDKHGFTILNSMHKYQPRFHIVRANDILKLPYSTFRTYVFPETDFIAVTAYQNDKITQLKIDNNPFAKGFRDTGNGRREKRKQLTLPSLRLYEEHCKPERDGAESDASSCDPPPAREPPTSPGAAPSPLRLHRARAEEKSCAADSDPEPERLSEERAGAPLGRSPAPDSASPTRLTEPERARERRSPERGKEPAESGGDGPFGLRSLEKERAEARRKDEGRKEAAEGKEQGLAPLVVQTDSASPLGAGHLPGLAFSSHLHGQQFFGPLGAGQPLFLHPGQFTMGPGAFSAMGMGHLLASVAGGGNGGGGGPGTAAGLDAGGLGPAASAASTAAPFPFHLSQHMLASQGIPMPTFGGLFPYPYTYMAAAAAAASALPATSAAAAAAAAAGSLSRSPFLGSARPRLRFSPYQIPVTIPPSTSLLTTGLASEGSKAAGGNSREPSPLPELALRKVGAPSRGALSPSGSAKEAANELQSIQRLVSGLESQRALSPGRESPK
In words: co-IP; endogenous TBX2 precipitated with anti-TBX2 antibody from BT474 lysate (Figure 4C; also after SP-2509, Supplementary Figure S2) or from MCF7 lysate with mouse monoclonal D-3 or rabbit polyclonal ab33298 (Figure 6A); ELB: 300 mM NaCl, 0.1% IGEPAL CA-630; Dynabeads Protein G, 4°C; species-matched IgG as control IP; Western blot. Background: Immunoblotting shows a protein as a band on a membrane.

Assay [2] concerns the target T2, Grainyhead-Like 2 (GRHL2) (human (endogenous in MCF7)) (UniProt Q6ISB3).
T2 sequence: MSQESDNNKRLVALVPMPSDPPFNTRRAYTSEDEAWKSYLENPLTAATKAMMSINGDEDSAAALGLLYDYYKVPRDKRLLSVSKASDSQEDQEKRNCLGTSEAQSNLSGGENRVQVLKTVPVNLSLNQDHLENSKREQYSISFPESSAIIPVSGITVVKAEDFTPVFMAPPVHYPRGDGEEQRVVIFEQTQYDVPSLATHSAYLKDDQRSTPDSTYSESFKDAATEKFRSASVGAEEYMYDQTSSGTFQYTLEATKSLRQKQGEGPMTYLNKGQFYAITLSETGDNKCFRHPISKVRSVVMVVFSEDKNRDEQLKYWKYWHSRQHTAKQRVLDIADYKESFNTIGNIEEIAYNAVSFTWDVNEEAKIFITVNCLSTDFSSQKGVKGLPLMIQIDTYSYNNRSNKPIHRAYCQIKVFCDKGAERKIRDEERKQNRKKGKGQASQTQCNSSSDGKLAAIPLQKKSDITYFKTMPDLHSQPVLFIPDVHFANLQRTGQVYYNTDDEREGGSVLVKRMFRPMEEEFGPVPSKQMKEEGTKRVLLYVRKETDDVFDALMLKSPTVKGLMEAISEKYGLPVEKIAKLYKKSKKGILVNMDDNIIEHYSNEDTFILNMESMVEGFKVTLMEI
In words: co-IP; endogenous GRHL2 precipitated with anti-GRHL2 antibody from MCF7 lysate (ELB: 300 mM NaCl, 0.1% IGEPAL CA-630), Dynabeads Protein G, 4°C; species-matched IgG as control IP; Western blot.

For assay [3], the target named is ZNF217 (human (endogenous in MCF7, BT474)) (UniProt O75362). The assay can be described thus: co-IP; endogenous ZNF217 precipitated with anti-ZNF217 antibody from MCF7 and BT474 lysates (ELB: 300 mM NaCl, 0.1% IGEPAL CA-630), Dynabeads Protein G, 4°C; species-matched IgG as control IP; Western blot.

In the case of HDAC1 (from UniProt Q13547 1-482), the binding entry in assay [1] was “binds”.
For the molecule ZNF217 (from UniProt O75362 1-1048), the binding result in assay [1] is recorded as “binds”.
For the molecule “Specificity Protein 1 (Sp1) (from UniProt P08047 1-785)”, the binding result in assay [1] was “binds”.

B1: T-Box 2 (TBX2) (protein, UniProt Q13207 1-712)
chain: T1 sequence
As for B1, the binding entry in assay [2] and in assay [3] was “binds” each time.

For the origin of these results see article PMC9226508.
